These are yes or no findings as the source states them, for the method shown. Binding seen in cells or lysates may run through a third protein. Some entries that bind do so weakly or less than the wild type. For some of these results: Where a sequence is shown, tags or fusion partners need not be part of it. Values belong to the molecule of their own block, whether it stands above or below them.
Key:
[1] = biological target: T1, FLAG tagged hnRNP M (wild-type, full length) (UniProt P52272); experiment: co-IP; HEK 293T transfected with FLAG tagged plasmids only; FLAG antibody IP; blots for endogenous Rictor, Raptor and mTOR; washes include 0.5 M NaCl
T1 sequence: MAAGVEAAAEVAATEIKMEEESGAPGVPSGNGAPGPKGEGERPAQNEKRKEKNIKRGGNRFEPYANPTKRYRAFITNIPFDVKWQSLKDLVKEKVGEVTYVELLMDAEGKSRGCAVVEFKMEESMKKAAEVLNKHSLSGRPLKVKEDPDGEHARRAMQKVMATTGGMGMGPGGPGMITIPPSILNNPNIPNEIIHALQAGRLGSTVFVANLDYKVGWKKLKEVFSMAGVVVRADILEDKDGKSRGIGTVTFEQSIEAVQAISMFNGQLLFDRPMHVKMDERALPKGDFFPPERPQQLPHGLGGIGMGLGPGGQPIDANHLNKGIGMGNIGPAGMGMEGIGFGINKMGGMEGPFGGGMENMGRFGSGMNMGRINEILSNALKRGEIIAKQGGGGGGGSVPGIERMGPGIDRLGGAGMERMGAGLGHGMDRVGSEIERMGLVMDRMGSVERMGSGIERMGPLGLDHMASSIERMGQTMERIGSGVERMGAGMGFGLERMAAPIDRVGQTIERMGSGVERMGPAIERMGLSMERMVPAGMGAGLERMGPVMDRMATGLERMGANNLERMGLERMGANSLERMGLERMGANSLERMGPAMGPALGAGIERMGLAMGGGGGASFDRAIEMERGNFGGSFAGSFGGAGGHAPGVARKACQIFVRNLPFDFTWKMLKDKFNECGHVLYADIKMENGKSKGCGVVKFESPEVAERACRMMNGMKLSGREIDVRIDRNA

Protein sequences, listed by entry. Tags and fused reporters are not part of them. Lines headed by an entry give the natural chain unless they say otherwise; changes in a name come on top. Chains listed by the source or under a name are the forms on record and can include a tag or linker. Residues count along the entry.
UniProt Q6R327: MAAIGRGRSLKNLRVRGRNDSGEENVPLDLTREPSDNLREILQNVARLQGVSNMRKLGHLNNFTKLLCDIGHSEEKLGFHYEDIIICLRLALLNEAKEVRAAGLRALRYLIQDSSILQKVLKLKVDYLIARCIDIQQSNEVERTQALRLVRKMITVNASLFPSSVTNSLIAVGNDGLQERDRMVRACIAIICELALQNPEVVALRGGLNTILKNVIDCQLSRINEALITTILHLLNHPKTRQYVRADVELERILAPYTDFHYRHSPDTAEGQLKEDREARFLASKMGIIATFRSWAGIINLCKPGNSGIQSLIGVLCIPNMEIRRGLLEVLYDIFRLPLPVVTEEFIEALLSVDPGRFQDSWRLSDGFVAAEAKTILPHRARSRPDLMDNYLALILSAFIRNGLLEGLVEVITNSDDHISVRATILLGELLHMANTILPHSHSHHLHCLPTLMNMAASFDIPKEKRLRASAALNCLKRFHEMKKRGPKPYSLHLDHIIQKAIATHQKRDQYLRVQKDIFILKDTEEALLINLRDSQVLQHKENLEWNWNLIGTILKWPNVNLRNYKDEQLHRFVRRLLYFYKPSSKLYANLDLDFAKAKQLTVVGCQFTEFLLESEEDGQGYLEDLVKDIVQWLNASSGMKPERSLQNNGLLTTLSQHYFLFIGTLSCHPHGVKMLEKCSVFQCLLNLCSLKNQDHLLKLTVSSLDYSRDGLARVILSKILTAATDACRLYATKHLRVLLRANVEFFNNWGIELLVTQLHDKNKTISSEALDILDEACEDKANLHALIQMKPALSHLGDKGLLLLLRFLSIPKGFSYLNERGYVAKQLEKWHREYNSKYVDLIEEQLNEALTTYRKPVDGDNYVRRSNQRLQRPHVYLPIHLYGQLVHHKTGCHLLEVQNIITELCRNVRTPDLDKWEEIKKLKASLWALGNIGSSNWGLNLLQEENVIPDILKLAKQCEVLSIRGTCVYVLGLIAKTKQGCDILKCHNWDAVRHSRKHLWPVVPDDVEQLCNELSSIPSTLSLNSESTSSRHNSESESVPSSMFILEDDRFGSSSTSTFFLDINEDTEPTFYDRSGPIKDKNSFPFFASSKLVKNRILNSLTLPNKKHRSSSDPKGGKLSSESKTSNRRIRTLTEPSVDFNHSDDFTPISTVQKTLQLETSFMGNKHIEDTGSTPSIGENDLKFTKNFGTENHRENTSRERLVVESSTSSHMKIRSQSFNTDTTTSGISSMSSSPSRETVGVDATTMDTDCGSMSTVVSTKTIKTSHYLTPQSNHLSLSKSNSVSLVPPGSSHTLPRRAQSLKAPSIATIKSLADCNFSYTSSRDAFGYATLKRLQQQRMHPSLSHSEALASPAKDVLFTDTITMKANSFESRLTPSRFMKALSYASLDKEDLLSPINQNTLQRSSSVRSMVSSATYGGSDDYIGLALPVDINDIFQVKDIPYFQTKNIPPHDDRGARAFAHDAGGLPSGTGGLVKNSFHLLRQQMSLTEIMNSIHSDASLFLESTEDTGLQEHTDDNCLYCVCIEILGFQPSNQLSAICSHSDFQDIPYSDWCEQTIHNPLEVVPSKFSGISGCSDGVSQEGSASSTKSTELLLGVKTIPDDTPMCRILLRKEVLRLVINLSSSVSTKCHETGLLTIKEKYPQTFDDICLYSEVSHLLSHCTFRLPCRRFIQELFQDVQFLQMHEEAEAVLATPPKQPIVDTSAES
HA tagged Rictor aa 1181-1708: residues 1181-1708 of Q6R327
UniProt Q8N122: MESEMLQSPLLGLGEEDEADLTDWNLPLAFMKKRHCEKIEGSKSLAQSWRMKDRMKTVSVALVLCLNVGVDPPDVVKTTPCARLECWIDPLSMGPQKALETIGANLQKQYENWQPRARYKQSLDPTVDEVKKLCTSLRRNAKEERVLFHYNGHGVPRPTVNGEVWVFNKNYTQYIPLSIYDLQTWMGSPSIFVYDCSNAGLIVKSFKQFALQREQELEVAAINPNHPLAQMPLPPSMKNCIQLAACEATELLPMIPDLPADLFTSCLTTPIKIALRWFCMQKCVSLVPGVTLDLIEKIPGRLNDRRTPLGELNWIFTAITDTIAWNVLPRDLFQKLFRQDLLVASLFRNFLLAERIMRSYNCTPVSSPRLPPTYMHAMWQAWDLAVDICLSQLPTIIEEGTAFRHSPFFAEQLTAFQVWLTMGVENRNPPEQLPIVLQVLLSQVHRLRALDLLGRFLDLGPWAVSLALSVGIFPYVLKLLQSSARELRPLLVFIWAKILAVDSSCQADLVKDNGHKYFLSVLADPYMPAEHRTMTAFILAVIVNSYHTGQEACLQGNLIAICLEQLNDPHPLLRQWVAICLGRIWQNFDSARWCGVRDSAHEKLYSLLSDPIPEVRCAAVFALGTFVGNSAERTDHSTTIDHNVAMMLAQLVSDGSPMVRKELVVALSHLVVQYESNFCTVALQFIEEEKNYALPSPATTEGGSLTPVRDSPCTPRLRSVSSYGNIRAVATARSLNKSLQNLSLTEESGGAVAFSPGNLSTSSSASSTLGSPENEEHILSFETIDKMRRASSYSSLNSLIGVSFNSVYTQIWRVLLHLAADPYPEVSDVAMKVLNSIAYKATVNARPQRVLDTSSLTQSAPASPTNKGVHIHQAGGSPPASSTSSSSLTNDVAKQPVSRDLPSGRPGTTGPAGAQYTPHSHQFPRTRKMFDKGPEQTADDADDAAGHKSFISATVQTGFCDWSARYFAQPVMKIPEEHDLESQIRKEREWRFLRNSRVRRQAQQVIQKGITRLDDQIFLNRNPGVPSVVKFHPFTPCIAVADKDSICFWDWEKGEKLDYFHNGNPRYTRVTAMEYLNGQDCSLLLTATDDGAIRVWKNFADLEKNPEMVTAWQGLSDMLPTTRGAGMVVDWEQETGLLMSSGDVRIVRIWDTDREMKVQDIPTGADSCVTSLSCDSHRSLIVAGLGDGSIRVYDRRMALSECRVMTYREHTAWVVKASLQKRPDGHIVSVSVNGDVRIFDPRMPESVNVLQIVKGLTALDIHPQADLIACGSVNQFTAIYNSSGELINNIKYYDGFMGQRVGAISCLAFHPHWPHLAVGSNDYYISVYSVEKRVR

[2] = biological target: Rictor (endogenous, HEK 293T) (human (endogenous in HEK 293T)) (UniProt Q6R327); experiment: co-IP; endogenous proteins only: Rictor, Raptor and control (rabbit normal IgG) antibodies used to IP from HEK 293T lysates; blot for hnRNP M
[3] = biological target: Raptor (endogenous, HEK 293T) (human (endogenous in HEK 293T)) (UniProt Q8N122); experiment: as above
[4] = biological target: HA tagged Rictor aa 1181-1708 (UniProt Q6R327); experiment: co-IP; HEK 293T co-transfected with FLAG-hnRNP M and HA tagged Rictor proteins (wild-type, aa 1-860, aa 1181-1708); HA antibody IP; blots with anti-FLAG and anti-HA

binding [1]: no binding
Molecule: Raptor (endogenous, HEK 293T) (from UniProt Q8N122 1-1335)

binding [2]: binds
binding [3]: no binding
B1: hnRNP M (endogenous, HEK 293T) (protein, UniProt P52272 1-730)
chain: T1 sequence

binding [4]: binds
B2: FLAG tagged hnRNP M (wild-type, full length) (protein, UniProt P52272 1-730)
chain: T1 sequence
